{"source": "the supplement of paper PMC8728848", "binders": {"B1": {"name": "truncCC1G-10077 (Coprinopsis cinerea) (protein)", "chain": "MHHHHHHHHPLPSPGPGWVLIQNGGTGKFLCSTPSGDIGTADGPETVYDYSVQWRFIQREYTGVYHVVNRATGAYLRQIGTSMPSIGLAEENDDELKDWWMLETYDNSEIGLASIISRWTGNVLDHYGGVSVQALDNNTENSYRSWAIIPARDWLTSFSLVNGQGGLCLAAQYAREETRLSTTANVNDFHAQWVFRKPSGSSGYTIQNKYNNHYVGGTSARWELVVCCNKYFGIRNTSTQKYLAIEDGQVTFQDQDMTDRKQCWELCSGRATDTSGNDYDLIYMDDDLLEVMIPWVGDKQGDLKHYIEKRATKKPPKDKGGWQLPAAGLIKKPKFNDIRQLLQELIEQWEWDVVNEEREQIQTLVSIDEAEARRLLGRRPHPDIVAAYQRSRSSTLFRIDRQGYFNIAGDRYVNIQGQYGDDSYFHIALPVGVRFGREQIRRFLRDSLDRSTSVTITPTTCKPPSGGPDYNRDPDSDGDNSWIKWTIAVVGTSAIKHSEL"}}, "assay_in_all_cases": "glycan array binding signal (z-score within array); higher = stronger binding", "conditions_in_all_cases": "glycan notation: IUPAC condensed, linker removed", "key": {"[1]": {"biological_target": "Neu5Ac(a2-3)Gal(b1-4)GlcNAc(b1-6)GalNAc", "summary_of_the_method": "(§1)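 The binding signal is a Z-score computed within each array. Data were drawn from 3228 arrays in the Consortium for Functional Glycomics database, restricted to those with a known protein sequence. Scores were averaged over arrays of the same protein sequence at different concentrations or buffers, and over linkers, and negative values can be taken as non-binding.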"}, "[2]": {"biological_target": "Neu5Ac(a2-3)Gal(b1-4)GlcNAc(b1-6)[Gal(b1-3)]GalNAc", "summary_of_the_method": "as §1"}, "[3]": {"biological_target": "Neu5Ac(a2-3)Gal(b1-4)GlcNAc(b1-6)[Neu5Ac(a2-3)Gal(b1-3)]GalNAc", "summary_of_the_method": "as §1"}, "[4]": {"biological_target": "Neu5Ac(a2-3)Gal(b1-4)GlcNAc6S", "summary_of_the_method": "as §1"}, "[5]": {"biological_target": "Neu5Ac(a2-3)Gal(b1-4)[Fuc(a1-3)]GlcNAc", "summary_of_the_method": "as §1"}, "[6]": {"biological_target": "Neu5Ac(a2-3)Gal(b1-4)[Fuc(a1-3)]GlcNAc(b1-2)Man", "summary_of_the_method": "as §1"}, "[7]": {"biological_target": "Neu5Ac(a2-3)Gal(b1-4)[Fuc(a1-3)]GlcNAc(b1-3)Gal", "summary_of_the_method": "as §1"}, "[8]": {"biological_target": "Neu5Ac(a2-3)Gal(b1-4)[Fuc(a1-3)]GlcNAc(b1-3)Gal(b1-4)GlcNAc", "summary_of_the_method": "as §1"}, "[9]": {"biological_target": "Neu5Ac(a2-3)Gal(b1-4)[Fuc(a1-3)]GlcNAc(b1-3)Gal(b1-4)[Fuc(a1-3)]GlcNAc(b1-3)Gal(b1-4)[Fuc(a1-3)]GlcNAc", "summary_of_the_method": "as §1"}, "[10]": {"biological_target": "Neu5Ac(a2-3)Gal(b1-4)[Fuc(a1-3)]GlcNAc(b1-3)GalNAc", "summary_of_the_method": "as §1"}, "[11]": {"biological_target": "Neu5Ac(a2-3)Gal(b1-4)[Fuc(a1-3)]GlcNAc(b1-6)[Gal(b1-3)]GalNAc", "summary_of_the_method": "as §1"}, "[12]": {"biological_target": "Neu5Ac(a2-3)Gal(b1-4)[Fuc(a1-3)]GlcNAc(b1-6)[Neu5Ac(a2-3)Gal(b1-3)]GalNAc", "summary_of_the_method": "as §1"}, "[13]": {"biological_target": "Neu5Ac(a2-3)Gal(b1-4)[Fuc(a1-3)]GlcNAc6S", "summary_of_the_method": "as §1"}, "[14]": {"biological_target": "Neu5Ac(a2-3)Gal6S(b1-4)GlcNAc", "summary_of_the_method": "as §1"}, "[15]": {"biological_target": "Neu5Ac(a2-3)Gal6S(b1-4)[Fuc(a1-3)]GlcNAc", "summary_of_the_method": "as §1"}, "Neu5Ac(a2-3)GalNAc": {"biological_target": "Neu5Ac(a2-3)GalNAc", "summary_of_the_method": "as §1"}, "[16]": {"biological_target": "Neu5Ac(a2-3)GalNAc(b1-4)GlcNAc", "summary_of_the_method": "as §1"}, "[17]": {"biological_target": "Neu5Ac(a2-3)[GalNAc(b1-4)]Gal(b1-4)Glc", "summary_of_the_method": "as §1"}, "[18]": {"biological_target": "Neu5Ac(a2-3)[GalNAc(b1-4)]Gal(b1-4)GlcNAc", "summary_of_the_method": "as §1"}, "[19]": {"biological_target": "Neu5Ac(a2-3)[GalNAc(b1-4)]Gal(b1-4)GlcNAc(b1-3)GalNAc", "summary_of_the_method": "as §1"}, "[20]": {"biological_target": "Neu5Ac(a2-3)[Neu5Ac(a2-6)]GalNAc", "summary_of_the_method": "as §1"}, "Neu5Ac(a2-6)Gal": {"biological_target": "Neu5Ac(a2-6)Gal", "summary_of_the_method": "as §1"}, "[21]": {"biological_target": "Neu5Ac(a2-6)Gal(b1-3)GlcNAc(b1-3)[Gal(b1-4)GlcNAc(b1-6)]Gal(b1-4)Glc", "summary_of_the_method": "as §1"}, "Neu5Ac(a2-6)Gal(b1-4)Glc": {"biological_target": "Neu5Ac(a2-6)Gal(b1-4)Glc", "summary_of_the_method": "as §1"}, "[22]": {"biological_target": "Neu5Ac(a2-6)Gal(b1-4)GlcNAc", "summary_of_the_method": "as §1"}, "[23]": {"biological_target": "Neu5Ac(a2-6)Gal(b1-4)GlcNAc(b1-2)Man", "summary_of_the_method": "as §1"}, "[24]": {"biological_target": "Neu5Ac(a2-6)Gal(b1-4)GlcNAc(b1-2)Man(a1-3)Man(b1-4)GlcNAc(b1-4)GlcNAc", "summary_of_the_method": "as §1"}, "[25]": {"biological_target": "Neu5Ac(a2-6)Gal(b1-4)GlcNAc(b1-2)Man(a1-3)[Gal(b1-4)GlcNAc(b1-2)Man(a1-6)]Man(b1-4)GlcNAc(b1-4)GlcNAc", "summary_of_the_method": "as §1"}, "[26]": {"biological_target": "Neu5Ac(a2-6)Gal(b1-4)GlcNAc(b1-2)Man(a1-3)[GlcNAc(b1-2)Man(a1-6)]Man(b1-4)GlcNAc(b1-4)GlcNAc", "summary_of_the_method": "as §1"}, "[27]": {"biological_target": "Neu5Ac(a2-6)Gal(b1-4)GlcNAc(b1-2)Man(a1-3)[GlcNAc(b1-4)][Neu5Ac(a2-6)Gal(b1-4)GlcNAc(b1-2)Man(a1-6)]Man(b1-4)GlcNAc(b1-4)GlcNAc", "summary_of_the_method": "as §1"}, "[28]": {"biological_target": "Neu5Ac(a2-6)Gal(b1-4)GlcNAc(b1-2)Man(a1-3)[Man(a1-6)]Man(b1-4)GlcNAc(b1-4)GlcNAc", "summary_of_the_method": "as §1"}}, "note": "This is one part of the list.", "data": [{"binder": "B1", "values": [{"measurement": "glycan array binding signal (z-score)", "setting": "[1]", "result": -0.355}, {"measurement": "glycan array binding signal (z-score)", "setting": "[2]", "result": -0.304}, {"measurement": "glycan array binding signal (z-score)", "setting": "[3]", "result": -0.613}, {"measurement": "glycan array binding signal (z-score)", "setting": "[4]", "result": -0.621}, {"measurement": "glycan array binding signal (z-score)", "setting": "[5]", "result": -1}, {"measurement": "glycan array binding signal (z-score)", "setting": "[6]", "result": 0.04}, {"measurement": "glycan array binding signal (z-score)", "setting": "[7]", "result": -1.4}, {"measurement": "glycan array binding signal (z-score)", "setting": "[8]", "result": 0.654}, {"measurement": "glycan array binding signal (z-score)", "setting": "[9]", "result": 0.128}, {"measurement": "glycan array binding signal (z-score)", "setting": "[10]", "result": 0.937}, {"measurement": "glycan array binding signal (z-score)", "setting": "[11]", "result": 0.788}, {"measurement": "glycan array binding signal (z-score)", "setting": "[12]", "result": 3.72}, {"measurement": "glycan array binding signal (z-score)", "setting": "[13]", "result": 0.867}, {"measurement": "glycan array binding signal (z-score)", "setting": "[14]", "result": -0.44}, {"measurement": "glycan array binding signal (z-score)", "setting": "[15]", "result": -0.931}, {"measurement": "glycan array binding signal (z-score)", "setting": "Neu5Ac(a2-3)GalNAc", "result": -1.31}, {"measurement": "glycan array binding signal (z-score)", "setting": "[16]", "result": -0.586}, {"measurement": "glycan array binding signal (z-score)", "setting": "[17]", "result": -1.1}, {"measurement": "glycan array binding signal (z-score)", "setting": "[18]", "result": -0.926}, {"measurement": "glycan array binding signal (z-score)", "setting": "[19]", "result": 2.23}, {"measurement": "glycan array binding signal (z-score)", "setting": "[20]", "result": -0.289}, {"measurement": "glycan array binding signal (z-score)", "setting": "Neu5Ac(a2-6)Gal", "result": -0.7}, {"measurement": "glycan array binding signal (z-score)", "setting": "[21]", "result": -0.784}, {"measurement": "glycan array binding signal (z-score)", "setting": "Neu5Ac(a2-6)Gal(b1-4)Glc", "result": -0.224}, {"measurement": "glycan array binding signal (z-score)", "setting": "[22]", "result": -0.58}, {"measurement": "glycan array binding signal (z-score)", "setting": "[23]", "result": -0.162}, {"measurement": "glycan array binding signal (z-score)", "setting": "[24]", "result": -0.073}, {"measurement": "glycan array binding signal (z-score)", "setting": "[25]", "result": -0.92}, {"measurement": "glycan array binding signal (z-score)", "setting": "[26]", "result": -0.318}, {"measurement": "glycan array binding signal (z-score)", "setting": "[27]", "result": -0.079}, {"measurement": "glycan array binding signal (z-score)", "setting": "[28]", "result": 0.481}]}]}
